Measurements: paper PMC7557908

Amino acid sequences for entries named in this document (tags omitted). A change or cut given only in a name is not applied to a line headed by its entry.
UniProt Q08397: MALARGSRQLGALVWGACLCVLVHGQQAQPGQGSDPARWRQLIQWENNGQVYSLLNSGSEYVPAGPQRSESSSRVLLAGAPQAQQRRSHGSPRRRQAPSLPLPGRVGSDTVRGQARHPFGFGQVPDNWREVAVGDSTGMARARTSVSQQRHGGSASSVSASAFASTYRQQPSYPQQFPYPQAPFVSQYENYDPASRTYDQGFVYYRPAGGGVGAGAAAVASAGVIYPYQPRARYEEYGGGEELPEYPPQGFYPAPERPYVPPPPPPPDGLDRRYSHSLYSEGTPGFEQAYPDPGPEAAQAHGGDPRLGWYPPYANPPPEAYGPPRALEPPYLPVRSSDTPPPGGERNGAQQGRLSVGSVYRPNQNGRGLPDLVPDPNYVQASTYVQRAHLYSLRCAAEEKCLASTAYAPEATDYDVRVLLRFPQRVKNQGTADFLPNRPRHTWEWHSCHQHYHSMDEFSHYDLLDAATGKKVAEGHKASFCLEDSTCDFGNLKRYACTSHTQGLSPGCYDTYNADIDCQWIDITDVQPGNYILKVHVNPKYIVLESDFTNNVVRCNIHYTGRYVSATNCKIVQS

Biological target: GST-LOXL1 full length (FL), wild type (human (LOXL1 cloned from LN18 cDNA)) (UniProt Q08397)
Test: pull-down; GST pull-down: GST-LOXL1 constructs incubated with His-BAG2 constructs; called a direct interaction (Fig. 4c, 4d, 4f)

- binding: binds
B1: His-BAG2 1 to 108 AAs (1-108) (domain or fragment, UniProt O95816 1-108)
chain: MAQAKINAKANEGRFCRSSSMADRSSRLLESLDQLELRVEALREAATAVEQEKEILLEMIHSIQNSQDMRQISDGEREELNLTANRLMGRTLTVEVSVETIRNPQQQE

No constants are given. Whether binding was seen depends on the method and setting. Binding seen in cells or lysates may run through a third protein. Binding calls can cover weak binding; strength is not graded here. Sequences can lack the tags named with a protein.
